# Experimental data: PubChem BioAssay AID493246 (Drosophila RNAi Screening Center, 2011)
# Test: 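Genome-wide search for dsRNAs that reduce cell number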 (primary screen)
# Cells: Drosophila Kc and S2R+ cells
# Reagents: long dsRNA against Drosophila genes
# Measurement: 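Raw, unnormalised count of remaining cells in each well; per-plate z-scores of cell number underlie the calls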
# Scale: Kc cell number and S2R+ cell number: higher = more cells remaining
# Active means: 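Counted as a hit if cell number falls by a z-score of at least 3 within its plate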
# The deposit covers about 21,000 reagents; below is an unselected part of those that have a named target and a result. In the full data, 429 (2%) got an active call. 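Values are raw and not normalised between plates; calls rest on per-plate z-scores that were not deposited.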 Reagent sequences are not shown. The record does not give: the amount of reagent, the time to read-out.
Target gene,amplicon,"Kc cell number, rep 1","Kc cell number, rep 2","S2R+ cell number, rep 1","S2R+ cell number, rep 2",Outcome
CG12971,DRSC11681,1.32e6,1.46e6,1.21e6,1.38e6,inactive
croc (crocodile),DRSC11884,1.41e6,1.42e6,1.29e6,1.37e6,inactive
Yp1 (Yolk protein 1),DRSC18731,1.54e6,1.52e6,1.09e6,1.22e6,inactive
CG42296,DRSC00394,1.55e6,1.53e6,1.00e6,1.08e6,inactive
mil (milkah),DRSC15696,1.53e6,1.60e6,9.78e5,1.10e6,inactive
SelR (Selenoprotein R),DRSC16071,1.62e6,1.69e6,1.35e6,1.47e6,inactive
Spn (Spinophilin),DRSC07986,1.54e6,1.45e6,1.06e6,1.18e6,inactive
Spn (Spinophilin),DRSC08490,1.44e6,1.62e6,1.14e6,1.17e6,inactive
Spn (Spinophilin),DRSC08491,1.53e6,1.42e6,1.03e6,1.18e6,inactive
COX6CL (Cytochrome c oxidase subunit 6C-like),DRSC00895,1.49e6,1.84e6,1.13e6,1.23e6,inactive
Kap3 (Kinesin associated protein 3),DRSC19426,5.78e5,,8.33e5,,inactive
CG11980,DRSC14456,1.47e6,1.55e6,1.16e6,1.27e6,inactive
Ids (Iduronate 2-sulfatase),DRSC08222,1.44e6,1.31e6,1.06e6,1.28e6,inactive
mRpL41 (mitochondrial ribosomal protein L41),DRSC06257,1.49e6,1.51e6,1.06e6,1.17e6,inactive
CG10663,DRSC09770,1.57e6,1.53e6,1.37e6,1.45e6,inactive

Copied from above, 2 entries:
Target gene,amplicon,"Kc cell number, rep 1","Kc cell number, rep 2","S2R+ cell number, rep 1","S2R+ cell number, rep 2",Outcome
SelR (Selenoprotein R),DRSC16071,1.62e6,1.69e6,1.35e6,1.47e6,inactive
Spn (Spinophilin),DRSC07986,1.54e6,1.45e6,1.06e6,1.18e6,inactive

The results go on.
Target gene,amplicon,"Kc cell number, rep 1","Kc cell number, rep 2","S2R+ cell number, rep 1","S2R+ cell number, rep 2",Outcome
CG31637,DRSC02270,1.20e6,1.40e6,4.30e5,3.50e5,inactive
CG31637,DRSC03263,1.64e6,1.60e6,1.18e6,1.41e6,inactive
dl (dorsal),DRSC03520,1.27e6,1.42e6,1.23e6,1.24e6,inactive
dl (dorsal),DRSC03521,1.47e6,1.58e6,1.26e6,1.38e6,inactive
CG46441,DRSC15561,1.50e6,1.65e6,1.16e6,1.25e6,inactive
sced (scrambled),DRSC04990,1.37e6,1.41e6,1.11e6,1.15e6,inactive
Acbp1 (Acyl-CoA binding protein 1),DRSC03093,1.44e6,1.61e6,1.22e6,1.40e6,inactive
l(2)k09848 (lethal (2) k09848),DRSC04894,1.38e6,1.46e6,9.83e5,1.11e6,inactive
step (steppke),DRSC03694,1.69e6,1.82e6,1.36e6,3.46e5,inactive
step (steppke),DRSC03699,1.81e6,1.83e6,1.23e6,2.37e5,inactive
